Results as given in EP1078002B1, “PEPTIDE ANTIANGIOGENIC DRUGS” (ABBOTT LABORATORIES, priority 1998, dated 1999).
At least one peptide structure holds a part that was inferred or is arguable (an end, a ring closure or a residue). Peptide text beside a SMILES is read from it.

System: Human Microvascular Endothelial Cells
Assay: Human microvascular endothelial cell (HMVEC) migration assay, modified Boyden chamber
Format: cell-based
Conditions: activators 15 ng/ml bFGF/VEGF, 4 hours at 37 °C
Protocol: The human microvascular endothelial (HMVEC) migration assay was run according to the procedure of S. S. Tolsma, O. V. Volpert, D. J. Good, W. F. Frazier, P. J. Polverini and N. Bouck, J. Cell Biol. 122, 497-511 (1993).
The HMVEC migration assay was carried out using Human Microvascular Endothelial Cells-Dermal (single donor) and Human Microvascular Endothelial Cells, (neonatal). The BCE or HMVEC cells were starved overnight in DME containing 0.1 % bovine serum albumin (BSA). Cells were then harvested with trypsin and resuspended in DME with 0.1 % BSA at a concentration of 1.5 X 10^6 cells per ml. Cells were added to the bottom of a 48 well modified Boyden chamber (Nucleopore Corporation, Cabin John, MD). The chamber was assembled and inverted, and cells were allowed to attach for 2 hours at 37 °C to polycarbonate chemotaxis membranes (5 µm pore size) that had been soaked in 0.1% gelatin overnight and dried. The chamber was then reinverted, and test substances (total volume of 50 µl), including activators, 15 ng/ml bFGF/VEGF, were added to the wells of the upper chamber. The apparatus was incubated for 4 hours at 37 °C. Membranes were recovered, fixed and stained (Diff Quick, Fisher Scientific) and the number of cells that had migrated to the upper chamber per […] high power fields counted. […]

Structure (SMILES): CCNC(=O)[C@@H]1CCCN1C(=O)[C@H](CCCNC(=N)N)NC(=O)[C@@H](NC(=O)[C@H](C)NC(=O)[C@@H](NC(=O)[C@H](NC(=O)[C@@H](NC(=O)CNC(=O)CN(C)C(C)=O)C(C)C)[C@H](C)CC)[C@@H](C)O)[C@@H](C)CC [Example 46, N-Ac-Sar-Gly-Val-D-Ile-Thr-Ala-Ile-Arg-ProNHCH2CH3] (HELM PEPTIDE1{[ac].[Sar].G.V.[dI].T.A.I.R.P.[CCN[*:1]]}$$$$V2.0)
- % Inhib. @ 20 nM: 77.5%
